# Publication PMC7819943, “Rice protein-binding microarrays: a tool to detect cis-acting elements near promoter regions in rice”
# The list shows a part of the results.
# Biological target: T1, OsSMF1 (Oryza sativa, UniProt Q6ZLB0 1-436)
# T1 sequence: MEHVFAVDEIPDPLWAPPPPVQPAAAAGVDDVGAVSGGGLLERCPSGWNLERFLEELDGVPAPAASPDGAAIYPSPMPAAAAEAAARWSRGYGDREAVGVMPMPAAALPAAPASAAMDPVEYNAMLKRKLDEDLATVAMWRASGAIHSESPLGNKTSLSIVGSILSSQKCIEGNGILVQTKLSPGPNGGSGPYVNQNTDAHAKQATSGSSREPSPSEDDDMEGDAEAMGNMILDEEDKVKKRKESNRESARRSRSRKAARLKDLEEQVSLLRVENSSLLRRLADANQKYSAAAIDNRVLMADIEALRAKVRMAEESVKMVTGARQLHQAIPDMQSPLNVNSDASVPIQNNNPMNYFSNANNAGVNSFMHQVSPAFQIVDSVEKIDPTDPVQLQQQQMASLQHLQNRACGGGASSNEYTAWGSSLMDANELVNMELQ
# Assay: protein-binding microarray (RPBM); PBS, 2% BSA, 51.3 ng/ul salmon testes DNA, 50 uM zinc acetate, 200 nM TF, 25 C, 1 h; high values mean tight binding
# Conditions: protein: recombinant; tags: N-terminal polyhistidine and DsRed monomer fusion (pET32a); chain copies: 2; label: CyDye5-dUTP incorporated in the synthesized complementary strand; 3' TTTTT single-stranded linker to array surface; dsDNA, one strand shown
# Outline: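 In PBS with 2% BSA, salmon testes DNA and 50 µM zinc acetate, 200 nM protein was incubated on a custom Agilent array at 25 °C for 1 h and then washed off. The array had been made double-stranded by primer extension with Cy5-dUTP and blocked with 2% BSA. The proteins were transcription factors fused N-terminally to polyhistidine and DsRed, expressed in E. coli BL21-CodonPlus and purified on Ni–NTA. The binding signal is per-feature fluorescence intensity (arbitrary units) from an Axon 4000B scanner.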
row,Sequence,binding signal
1,AAAATAAGGTCAAATATGTATCTTGTAGACCGTGTCATTGCGGAGTCACCTAGTGCAG,3210 fluorescence intensity (a.u.)
2,CAATCCAACCGTCGTCGCGCCGCACACCGGCCACCCACCCCGGAGTCACCTAGTGCAG,20700 fluorescence intensity (a.u.)
3,GAAAATATGTGCCAGGTGGAGCAGTATGTCATTGTCAGGACGGAGTCACCTAGTGCAG,4880 fluorescence intensity (a.u.)
4,GAGCAGTAATGCGTGTGCGGCGATTGGCACGTGCATGGTGCGGAGTCACCTAGTGCAG,3780 fluorescence intensity (a.u.)
5,CGCTCCGTCAGCCACGTAGACGCTACGTCGGCCAAAACCGCGGAGTCACCTAGTGCAG,14900 fluorescence intensity (a.u.)
6,TTAAAGCTGACTAGAGTACTTAGTTTGGTACTTGGATTTACGGAGTCACCTAGTGCAG,3580 fluorescence intensity (a.u.)
7,TCTGCTTGGACGCCTCACGCCACCGTGTAATGAGTGAACGCGGAGTCACCTAGTGCAG,3210 fluorescence intensity (a.u.)
8,TAAAGTATGAAATAGTGGTGTTTGCATTGGAAGAGTAGTGCGGAGTCACCTAGTGCAG,3460 fluorescence intensity (a.u.)
9,ATTTTATGGAATGTGCCAATGTAGTCGACGCATATGCGTCCGGAGTCACCTAGTGCAG,3380 fluorescence intensity (a.u.)
10,AACTGACGACTTGACAACTCTCATCGGCTAATCTCAGGACCGGAGTCACCTAGTGCAG,3340 fluorescence intensity (a.u.)
11,TGTTGCGCCCTGATTCTGCAGGCACCATGCGAATCGCGGCCGGAGTCACCTAGTGCAG,3770 fluorescence intensity (a.u.)
12,AGATCAGCAAGCGAACTGAATTTAATCAAATGTACTAGTACGGAGTCACCTAGTGCAG,23000 fluorescence intensity (a.u.)
13,ACTATAATTCATGGGATTATGTGCCAGCAGTCATAATATCCGGAGTCACCTAGTGCAG,3180 fluorescence intensity (a.u.)
14,GTGCTACGGATCTTATATCCACGGTAGATTTGATGTATGTCGGAGTCACCTAGTGCAG,3270 fluorescence intensity (a.u.)
15,TCTCCTCCCACTCCCTTGTTCTTGACGAGAAGACGTTCAGCGGAGTCACCTAGTGCAG,3390 fluorescence intensity (a.u.)
16,TCTGGCAAATTTCTCTCCTTCTGATGATTGGTCAGCAGAGCGGAGTCACCTAGTGCAG,3780 fluorescence intensity (a.u.)
17,TCCTCCGTGAATTACACGGTACAGTACCTATATGTGTGTGCGGAGTCACCTAGTGCAG,4190 fluorescence intensity (a.u.)
18,CGCCACCGTCACCGACCGCGCGCGCACGCACGCACACTCCCGGAGTCACCTAGTGCAG,3390 fluorescence intensity (a.u.)
19,TAAAATCGCCGGTAACGTGGCGCACGTCCGGCCGCCTGAACGGAGTCACCTAGTGCAG,4620 fluorescence intensity (a.u.)
20,GAAGAGAGAGAAGAGGGATGAGTGACGATGACAGGTGGGGCGGAGTCACCTAGTGCAG,5720 fluorescence intensity (a.u.)
21,ATACAGGTTACGACGTGTACTACACGTGCACAGTAACGTGCGGAGTCACCTAGTGCAG,7550 fluorescence intensity (a.u.)

# Copied from the list:
# binding signal, TGTTGCGCCCTGATTCTGCAGGCACCATGCGAATCGCGGCCGGAGTCACCTAGTGCAG reads 3770 fluorescence intensity (a.u.)
# binding signal, TAAAATCGCCGGTAACGTGGCGCACGTCCGGCCGCCTGAACGGAGTCACCTAGTGCAG reads 4620 fluorescence intensity (a.u.)
# binding signal, TCTCCTCCCACTCCCTTGTTCTTGACGAGAAGACGTTCAGCGGAGTCACCTAGTGCAG reads 3390 fluorescence intensity (a.u.)

# Additional results:

row,Sequence,binding signal
1,GCCCCACCCTCCCATTACCCTACCTTTGCAAACGCATCGTCGGAGTCACCTAGTGCAG,3150 fluorescence intensity (a.u.)
2,ATCCGCGCCTCCCCTCTCCTCCTCCGCCGGCTGCTTCCCCCGGAGTCACCTAGTGCAG,3490 fluorescence intensity (a.u.)
3,CGTCGTCGGCACCAGGGCCACGGATTACTTCAGCGACGAGCGGAGTCACCTAGTGCAG,16500 fluorescence intensity (a.u.)
4,AAGTTGTATACATCTTGCACTGTCACTAGATCTACTCATACGGAGTCACCTAGTGCAG,3770 fluorescence intensity (a.u.)
5,AAAATAATGAGTGAATGACAACGTTGTACCGACCGCGCCGCGGAGTCACCTAGTGCAG,3230 fluorescence intensity (a.u.)
6,GCCGCCGCCGCCGCCGCCGCTGACGAGGAGCAGAAGGTGGCGGAGTCACCTAGTGCAG,4310 fluorescence intensity (a.u.)
7,GCGGGCATAGTCCACCCAACCAGCGAGCCATGTGGCCCCACGGAGTCACCTAGTGCAG,3590 fluorescence intensity (a.u.)
8,GCCACGTGGGATGAAGCCTAAGTCAACATCGCCACGTCAGCGGAGTCACCTAGTGCAG,43200 fluorescence intensity (a.u.)
9,TAATTTTAACGTGAGCTGAAGAAGACAGTACCGAAGGATACGGAGTCACCTAGTGCAG,3250 fluorescence intensity (a.u.)
10,TGAGAGTGGTTTAGCGCCTACGTGGCAGTTTGACTTGGTCCGGAGTCACCTAGTGCAG,18500 fluorescence intensity (a.u.)
11,GTTCTACCAGATGAATTTATGATTCTATGAACTAGTAAACCGGAGTCACCTAGTGCAG,27200 fluorescence intensity (a.u.)
12,GCGCGCCGCCATGTCCGCTCCATCCCGGCCGCCACGCCCGCGGAGTCACCTAGTGCAG,4330 fluorescence intensity (a.u.)
13,CCGCTTCATGAGCCGTCGTGGCGTGGATTTGGAAATCCATCGGAGTCACCTAGTGCAG,3940 fluorescence intensity (a.u.)
14,CATGTGATGCGTGTACCAACGACACATCACATACTTTAATCGGAGTCACCTAGTGCAG,5780 fluorescence intensity (a.u.)
15,GTAGGAGGGTGGTTGGTTGTAGAATGGGAAGAAATTTGAACGGAGTCACCTAGTGCAG,3220 fluorescence intensity (a.u.)
16,CAGCCCAGTTAATTTCTGTAGTACCAGACGGGCCATGCGTCGGAGTCACCTAGTGCAG,7670 fluorescence intensity (a.u.)
17,CCTTTGAGGTTGATGTTGACTCAGGTTAGAGTTTAGGGGCCGGAGTCACCTAGTGCAG,4510 fluorescence intensity (a.u.)
18,CGGTCGCCGGAGACAGCAAGTGGAGGCGGGGAAGGAGTCGCGGAGTCACCTAGTGCAG,3610 fluorescence intensity (a.u.)
19,GGCCGGCCAGCGCCATGGCTACCGCCGCCTCGTGCCTCTCCGGAGTCACCTAGTGCAG,3310 fluorescence intensity (a.u.)
20,GGTCACTGTCGAATTCATCACATGCCACACAGGATCTCTGCGGAGTCACCTAGTGCAG,3200 fluorescence intensity (a.u.)
21,CACGACCCGCTTGGACACGTCGTAGCGCGCGTCGATCTCCCGGAGTCACCTAGTGCAG,6350 fluorescence intensity (a.u.)
